± gives the standard deviation of the averaged measurements. This is one part of the list. The list holds hits alone, and they repeat only in part.
Tests used:
Assay in all cases: PRISMA enrichment of interactor (LFQ) in peptide spot vs all other peptide spots (log2 fold change); higher = stronger / more specific binding of the interactor to the peptide
ATP2A2, P16615 = biological target: ATP2A2, P16615
Method: (§1)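 PRISMA: 15-aa overlapping tiles (offset 8 aa) of 60 microproteins, plus SOS1/GLUT1 control peptides, were spot-synthesized on cellulose membranes in triplicate. Membranes were incubated with benzonase-treated HEK293T lysate, and bound proteins were identified by LC-MS/MS with LFQ. Enrichment is the log2 fold change of each protein in one spot versus all other spots. Only interactors passing the significance cutoff are listed.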

By UniProt entry, the sequences of proteins in these tests, tags left out.
DDX39A, O00148, UniProt O00148, whole entry: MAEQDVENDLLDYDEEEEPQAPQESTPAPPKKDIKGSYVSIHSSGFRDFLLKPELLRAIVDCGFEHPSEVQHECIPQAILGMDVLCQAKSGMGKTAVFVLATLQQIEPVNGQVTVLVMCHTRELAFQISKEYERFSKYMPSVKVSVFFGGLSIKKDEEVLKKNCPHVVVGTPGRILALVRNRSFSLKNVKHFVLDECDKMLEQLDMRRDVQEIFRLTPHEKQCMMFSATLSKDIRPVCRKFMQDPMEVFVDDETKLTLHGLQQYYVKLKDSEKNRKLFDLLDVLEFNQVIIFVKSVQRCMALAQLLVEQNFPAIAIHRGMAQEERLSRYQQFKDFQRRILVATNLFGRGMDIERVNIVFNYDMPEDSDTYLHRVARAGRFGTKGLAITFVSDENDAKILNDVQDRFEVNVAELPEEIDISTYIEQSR
DNM1L, O00429, UniProt O00429, whole entry: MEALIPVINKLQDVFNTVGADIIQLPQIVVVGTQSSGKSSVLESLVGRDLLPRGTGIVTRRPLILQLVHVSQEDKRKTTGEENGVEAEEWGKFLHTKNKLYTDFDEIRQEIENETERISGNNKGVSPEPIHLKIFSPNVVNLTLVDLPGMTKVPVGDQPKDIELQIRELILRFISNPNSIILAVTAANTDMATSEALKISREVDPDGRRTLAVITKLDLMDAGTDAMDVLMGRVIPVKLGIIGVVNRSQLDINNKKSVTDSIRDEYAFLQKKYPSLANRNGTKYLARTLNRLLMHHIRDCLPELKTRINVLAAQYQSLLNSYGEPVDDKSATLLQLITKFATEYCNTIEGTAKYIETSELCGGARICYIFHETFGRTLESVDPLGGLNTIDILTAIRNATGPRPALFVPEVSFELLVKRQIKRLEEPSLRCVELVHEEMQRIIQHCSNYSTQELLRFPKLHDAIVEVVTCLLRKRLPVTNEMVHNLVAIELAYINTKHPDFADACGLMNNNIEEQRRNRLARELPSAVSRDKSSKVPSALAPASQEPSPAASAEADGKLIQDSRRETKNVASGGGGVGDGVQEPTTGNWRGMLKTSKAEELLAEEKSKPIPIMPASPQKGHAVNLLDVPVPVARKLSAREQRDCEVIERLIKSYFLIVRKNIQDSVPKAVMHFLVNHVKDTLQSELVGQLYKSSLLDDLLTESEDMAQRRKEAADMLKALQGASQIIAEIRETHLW
DCAF16, Q9NXF7, UniProt Q9NXF7, whole entry: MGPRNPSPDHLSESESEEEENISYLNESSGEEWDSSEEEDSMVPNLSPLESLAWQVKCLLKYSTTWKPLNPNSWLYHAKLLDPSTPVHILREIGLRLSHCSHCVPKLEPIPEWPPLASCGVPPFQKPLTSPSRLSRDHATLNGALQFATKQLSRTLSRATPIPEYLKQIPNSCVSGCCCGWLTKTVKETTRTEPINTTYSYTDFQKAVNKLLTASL
PDIA3, P30101, UniProt P30101, whole entry: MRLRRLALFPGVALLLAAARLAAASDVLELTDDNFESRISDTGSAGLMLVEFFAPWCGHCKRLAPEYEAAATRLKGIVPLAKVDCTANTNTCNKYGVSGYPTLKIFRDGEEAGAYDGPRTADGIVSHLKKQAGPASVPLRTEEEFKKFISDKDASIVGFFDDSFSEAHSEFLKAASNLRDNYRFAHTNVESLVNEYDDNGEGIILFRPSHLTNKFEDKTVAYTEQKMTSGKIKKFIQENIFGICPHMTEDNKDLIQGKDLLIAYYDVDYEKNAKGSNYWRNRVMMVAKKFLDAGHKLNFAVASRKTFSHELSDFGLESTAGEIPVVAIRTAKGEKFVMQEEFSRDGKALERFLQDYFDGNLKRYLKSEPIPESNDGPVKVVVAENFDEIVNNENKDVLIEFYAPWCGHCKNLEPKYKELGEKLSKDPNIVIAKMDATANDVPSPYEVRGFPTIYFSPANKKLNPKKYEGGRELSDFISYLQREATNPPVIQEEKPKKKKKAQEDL
CD2AP, Q9Y5K6, UniProt Q9Y5K6, whole entry: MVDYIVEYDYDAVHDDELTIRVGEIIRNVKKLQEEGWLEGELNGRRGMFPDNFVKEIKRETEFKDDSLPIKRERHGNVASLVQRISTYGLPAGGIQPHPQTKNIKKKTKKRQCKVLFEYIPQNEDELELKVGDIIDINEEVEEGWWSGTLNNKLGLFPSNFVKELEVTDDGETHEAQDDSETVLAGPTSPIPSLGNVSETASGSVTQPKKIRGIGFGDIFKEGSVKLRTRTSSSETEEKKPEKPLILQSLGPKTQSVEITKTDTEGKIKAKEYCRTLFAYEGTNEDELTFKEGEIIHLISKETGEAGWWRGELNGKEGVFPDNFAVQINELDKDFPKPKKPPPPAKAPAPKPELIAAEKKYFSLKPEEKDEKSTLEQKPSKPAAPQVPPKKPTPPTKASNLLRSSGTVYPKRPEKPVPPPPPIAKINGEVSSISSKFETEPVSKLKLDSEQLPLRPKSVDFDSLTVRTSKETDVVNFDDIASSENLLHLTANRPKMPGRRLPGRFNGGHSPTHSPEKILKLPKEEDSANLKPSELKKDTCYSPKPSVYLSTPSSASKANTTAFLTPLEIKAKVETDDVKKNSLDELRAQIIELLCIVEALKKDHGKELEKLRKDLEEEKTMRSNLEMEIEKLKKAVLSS

CLASRP, Q8N2M8 = biological target: CLASRP, Q8N2M8
Method: as §1

DDX39A, O00148 = biological target: DDX39A, O00148
Method: as §1

DHX15, O43143 = biological target: DHX15, O43143
Method: as §1

DNM1L, O00429 = biological target: DNM1L, O00429
Method: as §1

EBNA1BP2, Q99848 = biological target: EBNA1BP2, Q99848
Method: as §1

ELOB, Q15370 = biological target: ELOB, Q15370
Method: as §1

JPT2, Q9H910 = biological target: JPT2, Q9H910
Method: as §1

MCM4, P33991 = biological target: MCM4, P33991
Method: as §1

NXF1, Q9UBU9 = biological target: NXF1, Q9UBU9
Method: as §1

SCP2, P22307 = biological target: SCP2, P22307
Method: as §1

SFXN2, Q96NB2 = biological target: SFXN2, Q96NB2
Method: as §1

SRRT, Q9BXP5 = biological target: SRRT, Q9BXP5
Method: as §1

TFB2M, Q9H5Q4 = biological target: TFB2M, Q9H5Q4
Method: as §1

TOP1, P11387 = biological target: TOP1, P11387
Method: as §1

UBE3C, Q15386 = biological target: UBE3C, Q15386
Method: as §1

ATIC, P31939 = biological target: ATIC, P31939
Method: as §1

CLTA, P09496 = biological target: CLTA, P09496
Method: as §1

DCAF16, Q9NXF7 = biological target: DCAF16, Q9NXF7
Method: as §1

DDX49, Q9Y6V7 = biological target: DDX49, Q9Y6V7
Method: as §1

HSPA9, P38646 = biological target: HSPA9, P38646
Method: as §1

MARCKSL1, P49006 = biological target: MARCKSL1, P49006
Method: as §1

PDIA3, P30101 = biological target: PDIA3, P30101
Method: as §1

PUSL1, Q8N0Z8 = biological target: PUSL1, Q8N0Z8
Method: as §1

VCP, P55072 = biological target: VCP, P55072
Method: as §1

ASPM, Q8IZT6 = biological target: ASPM, Q8IZT6
Method: as §1

C1QBP, Q07021 = biological target: C1QBP, Q07021
Method: as §1

CD2AP, Q9Y5K6 = biological target: CD2AP, Q9Y5K6
Method: as §1

CDIPT, O14735 = biological target: CDIPT, O14735
Method: as §1

GLMN, Q92990 = biological target: GLMN, Q92990
Method: as §1

MRPL27, Q9P0M9 = biological target: MRPL27, Q9P0M9
Method: as §1

NAP1L1, P55209 = biological target: NAP1L1, P55209
Method: as §1

RPF2, Q9H7B2 = biological target: RPF2, Q9H7B2
Method: as §1

SMNDC1, O75940 = biological target: SMNDC1, O75940
Method: as §1

STUB1, Q9UNE7 = biological target: STUB1, Q9UNE7
Method: as §1

PTAVAAEAPVDAAEL [RNF10]
PRISMA enrichment of interactor (log2) (ATP2A2, P16615): 5.88 | PRISMA enrichment of interactor (log2) (CLASRP, Q8N2M8): 4.94 | PRISMA enrichment of interactor (log2) (DDX39A, O00148): 6.23 | PRISMA enrichment of interactor (log2) (DHX15, O43143): 5.66 | PRISMA enrichment of interactor (log2) (DNM1L, O00429): 4.7 | PRISMA enrichment of interactor (log2) (EBNA1BP2, Q99848): 5.07 | PRISMA enrichment of interactor (log2) (ELOB, Q15370): 4.55 | PRISMA enrichment of interactor (log2) (JPT2, Q9H910): 4.17 | PRISMA enrichment of interactor (log2) (MCM4, P33991): 5.23 | PRISMA enrichment of interactor (log2) (NXF1, Q9UBU9): 4.83 | PRISMA enrichment of interactor (log2) (SCP2, P22307): 5.01 | PRISMA enrichment of interactor (log2) (SFXN2, Q96NB2): 4.56 | PRISMA enrichment of interactor (log2) (SRRT, Q9BXP5): 4.79 | PRISMA enrichment of interactor (log2) (TFB2M, Q9H5Q4): 6.2 | PRISMA enrichment of interactor (log2) (TOP1, P11387): 5.46 | PRISMA enrichment of interactor (log2) (UBE3C, Q15386): 6.81

EGFRLHLEPGSIFMP [NAV2-AS2_2]
PRISMA enrichment of interactor (log2) (ATIC, P31939): 4.25 | PRISMA enrichment of interactor (log2) (CLTA, P09496): 5.24 | PRISMA enrichment of interactor (log2) (DCAF16, Q9NXF7): 3.98 | PRISMA enrichment of interactor (log2) (DDX49, Q9Y6V7): 5.08 | PRISMA enrichment of interactor (log2) (HSPA9, P38646): 4.27 | PRISMA enrichment of interactor (log2) (MARCKSL1, P49006): 5 | PRISMA enrichment of interactor (log2) (PDIA3, P30101): 5.83 | PRISMA enrichment of interactor (log2) (PUSL1, Q8N0Z8): 5.19 | PRISMA enrichment of interactor (log2) (VCP, P55072): 4.98

MSPGRARRLPQATAR [SLCO5A1]
PRISMA enrichment of interactor (log2) (ASPM, Q8IZT6): 4.97 | PRISMA enrichment of interactor (log2) (C1QBP, Q07021): 6.3 | PRISMA enrichment of interactor (log2) (CD2AP, Q9Y5K6): 5.96 | PRISMA enrichment of interactor (log2) (CDIPT, O14735): 4.86 | PRISMA enrichment of interactor (log2) (GLMN, Q92990): 5 | PRISMA enrichment of interactor (log2) (MRPL27, Q9P0M9): 8.02 | PRISMA enrichment of interactor (log2) (NAP1L1, P55209): 5.21 ± 0.76 | PRISMA enrichment of interactor (log2) (RPF2, Q9H7B2): 6.03 | PRISMA enrichment of interactor (log2) (SMNDC1, O75940): 4.76 | PRISMA enrichment of interactor (log2) (STUB1, Q9UNE7): 6.55
